Test results as given in patent US11064699B2, “Condensed heterocyclic compound or salt thereof, agricultural and horticultural insecticide comprising the compound or the salt, and method for using the insecticide” (Nihon Nohyaku Co., Ltd., priority 2017, dated 2021).
Some of these results come from one statement about several compounds together.

Key:
Format in all cases: in vivo
Plutella xylostella = assay: Insecticidal test on Plutella xylostella (dip of Chinese cabbage seedlings with laid eggs); details: 500 ppm, seedlings with laid eggs dipped about 30 seconds, 25° C., 6 days after dip treatment, criteria of Test Example 2
Source text: Insecticidal Test on Plutella xylostella
Adults of Plutella xylostella were released onto Chinese cabbage seedlings and allowed to lay eggs thereon. At 2 days after the release of the adults, the Chinese cabbage seedlings with laid eggs were dipped for about 30 seconds in agrochemical dispersions diluted to 500 ppm, each of which contained a different condensed heterocyclic compound represented by the general formula (1) of the present invention as an active ingredient. After air-dried, the seedlings were kept in a thermostatic chamber at 25° C. At 6 days after the dip treatment, the number of hatched larvae per plot was counted, the mortality rate was calculated according to the formula shown below, and the insecticidal efficacy was evaluated according to the criteria of Test Example 2. This test was conducted in triplicate using 10 adults of Plutella xylostella per plot. Corrected mortality rate (%)=100×(Number of hatched larvae in a non-treatment plot−Number of hatched larvae in a treatment plot)/Number of hatched larvae in a non-treatment plot [Math. 3]

Laodelphax striatellus = assay: Insecticidal test on Laodelphax striatellus (rice seedling dip); details: 500 ppm, rice seedlings dipped 30 seconds, 3rd-instar larvae, 8 days after inoculation
Source text: Insecticidal Test on Laodelphax striatellus
The condensed heterocyclic compounds represented by the general formula (1) of the present invention or salts thereof were separately dispersed in water and diluted to 500 ppm. Rice plant seedlings (variety: Nihonbare) were dipped in the agrochemical dispersions for 30 seconds. After air-dried, each seedling was put into a separate glass test tube and inoculated with ten 3rd-instar larvae of Laodelphax striatellus, and then the glass test tubes were capped with cotton plugs. At 8 days after the inoculation, the numbers of surviving larvae and dead larvae were counted, the corrected mortality rate was calculated according to the formula shown below, and the insecticidal efficacy was evaluated according to the criteria shown below. Corrected mortality rate (%)=100×(Survival rate in a non-treatment plot−Survival rate in a treatment plot)/Survival rate in a non-treatment plot [Math. 2] Corrected Mortality Rate A: the corrected mortality rate is 100%. B: the corrected mortality rate is 90 to 99%. C: the corrected mortality rate is 80 to 89%. D: the corrected mortality rate is 50 to 79%.

Myzus persicae = assay: Test for control efficacy on Myzus persicae (foliar application, potted Chinese cabbage); details: 500 ppm, foliar application to Chinese cabbage, 6 days after application

Compound | insecticidal efficacy (corrected mortality rate), activity level (Plutella xylostella) | insecticidal efficacy (corrected mortality rate), activity level (Laodelphax striatellus) | control efficacy (control rate), activity level (Myzus persicae)
CCSc1c(-c2nnc3cc(C(F)(F)F)ncn23)nc2cc(C(F)(F)F)ccn12 [Compound 5-26] | A (the corrected mortality rate is 100%) | A (the corrected mortality rate is 100%) | A (the control rate is 100%)
CCS(=O)(=O)c1cc(I)cnc1-c1nnc2cc(C(F)(F)F)ncn12 [Compound 2-31] | A (the corrected mortality rate is 100%) | A (the corrected mortality rate is 100%) | 
CCS(=O)(=O)c1cc(-c2cccc(C(F)(F)F)c2)cnc1-c1nnc2c(SC(F)(F)F)cccn12 [Compound 1-52] | A (the corrected mortality rate is 100%) | A (the corrected mortality rate is 100%) | 
CCS(=O)(=O)c1cc(-c2cccc(C(F)(F)F)c2)cnc1-c1nnc2nc(C(F)(F)F)cc(C)n12 [Compound 2-69] | A (the corrected mortality rate is 100%) | A (the corrected mortality rate is 100%) | 
CCS(=O)(=O)c1c(-c2nnc3cc(C(F)(F)F)ncn23)nc2cc(C(F)(F)F)ccn12 [Compound 5-46] | A (the corrected mortality rate is 100%) | A (the corrected mortality rate is 100%) | A (the control rate is 100%)
CCS(=O)(=O)c1cc(C(F)(F)F)ccc1-c1nnc2cc(C(F)(F)F)nc(C)n12 [Compound 2-73] | A (the corrected mortality rate is 100%) | A (the corrected mortality rate is 100%) | 
CCS(=O)(=O)c1cc(C(F)(F)F)cnc1-c1nnc2cc(C(F)(F)F)ncn12 [Compound 2-67] | A (the corrected mortality rate is 100%) | A (the corrected mortality rate is 100%) | 
